Reference: paper PMC6224091
No constants are given. Whether binding was seen depends on the method and setting. In cells and extracts the contact can be indirect. Some results given as binding are weak or reduced against the parent protein; the word gives no strength. Tags and fused reporters may be left off the sequences shown.

Sequences of proteins named here, by UniProt entry; tags and fusion partners are left off.
UniProt Q6XZF7: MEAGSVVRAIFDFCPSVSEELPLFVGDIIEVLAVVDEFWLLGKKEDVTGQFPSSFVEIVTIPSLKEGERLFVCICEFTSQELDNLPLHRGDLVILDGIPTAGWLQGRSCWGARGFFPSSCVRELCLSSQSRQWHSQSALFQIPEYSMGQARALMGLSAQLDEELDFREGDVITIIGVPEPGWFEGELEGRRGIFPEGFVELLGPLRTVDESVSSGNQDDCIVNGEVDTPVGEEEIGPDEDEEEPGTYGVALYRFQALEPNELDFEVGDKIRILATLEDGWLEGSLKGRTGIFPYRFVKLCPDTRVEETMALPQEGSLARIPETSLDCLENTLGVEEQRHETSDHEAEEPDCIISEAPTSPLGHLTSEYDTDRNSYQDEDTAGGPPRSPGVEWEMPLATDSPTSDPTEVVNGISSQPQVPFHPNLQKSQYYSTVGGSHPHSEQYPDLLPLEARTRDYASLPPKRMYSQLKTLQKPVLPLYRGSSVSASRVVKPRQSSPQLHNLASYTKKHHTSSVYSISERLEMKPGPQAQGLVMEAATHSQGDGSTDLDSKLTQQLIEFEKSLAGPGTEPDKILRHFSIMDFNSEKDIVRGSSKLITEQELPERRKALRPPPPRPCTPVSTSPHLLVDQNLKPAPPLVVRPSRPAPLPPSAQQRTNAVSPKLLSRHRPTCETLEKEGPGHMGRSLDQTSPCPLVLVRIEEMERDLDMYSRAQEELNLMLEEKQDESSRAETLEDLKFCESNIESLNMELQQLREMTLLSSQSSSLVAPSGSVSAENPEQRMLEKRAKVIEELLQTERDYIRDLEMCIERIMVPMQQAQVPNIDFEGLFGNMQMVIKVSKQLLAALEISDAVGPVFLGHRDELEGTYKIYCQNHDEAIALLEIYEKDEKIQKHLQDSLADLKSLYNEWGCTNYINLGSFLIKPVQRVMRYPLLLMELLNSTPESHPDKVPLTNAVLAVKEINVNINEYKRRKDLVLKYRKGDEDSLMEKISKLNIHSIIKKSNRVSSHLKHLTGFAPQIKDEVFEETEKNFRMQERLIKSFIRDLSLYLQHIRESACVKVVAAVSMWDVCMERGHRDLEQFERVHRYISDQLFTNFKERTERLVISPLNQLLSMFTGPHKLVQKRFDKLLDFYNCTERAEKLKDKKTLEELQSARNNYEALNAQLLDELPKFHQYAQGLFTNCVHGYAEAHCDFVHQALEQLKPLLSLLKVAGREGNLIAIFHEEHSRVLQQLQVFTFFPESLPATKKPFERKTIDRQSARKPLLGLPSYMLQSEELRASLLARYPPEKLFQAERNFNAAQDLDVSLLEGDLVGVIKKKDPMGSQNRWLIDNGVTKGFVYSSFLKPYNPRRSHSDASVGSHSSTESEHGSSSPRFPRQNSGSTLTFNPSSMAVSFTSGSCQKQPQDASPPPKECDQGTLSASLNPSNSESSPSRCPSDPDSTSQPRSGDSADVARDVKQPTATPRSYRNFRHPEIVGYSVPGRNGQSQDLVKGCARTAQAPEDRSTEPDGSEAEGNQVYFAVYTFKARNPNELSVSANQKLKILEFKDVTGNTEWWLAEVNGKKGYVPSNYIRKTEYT

Experiments:
[1] = biological target: YFP-Tuba (UniProt Q6XZF7); test: co-IP; YFP-Tuba captured on agarose beads coupled to GFP-binding protein (GBP) from cleared lysate of transfected HEK293T cells, 1 h at 4°C; 1% Nonidet P-40 substitute, 10% glycerol, 50 mM Tris-HCl pH 7.4, 2.0 mM MgCl2, 200 mM NaCl; V5-Par6A (WT or mutant), HA-Cdc42(G12V) and YFP-Tuba co-expressed
[2] = biological target: YFP-Tuba (UniProt Q6XZF7); test: co-IP; YFP-Tuba captured on agarose beads coupled to GFP-binding protein (GBP) from cleared lysate of transfected HEK293T cells, 1 h at 4°C; 1% Nonidet P-40 substitute, 10% glycerol, 50 mM Tris-HCl pH 7.4, 2.0 mM MgCl2, 200 mM NaCl; without HA-Cdc42(G12V)

| binding [1] | binding [2] | Binder |
| --- | --- | --- |
| binds | binds weakly | V5-Par6A (wild type) (protein, UniProt Q9NPB6 1-346) MARPQRTPARSPDSIVEVKSKFDAEFRRFALPRASVSGFQEFSRLLRAVHQIPGLDVLLGYTDAHGDLLPLTNDDSLHRALASGPPPLRLLVQKRAEADSSGLAFASNSLQRRKKGLLLRPVAPLRTRPPLLISLPQDFRQVSSVIDVDLLPETHRRVRLHKHGSDRPLGFYIRDGMSVRVAPQGLERVPGIFISRLVRGGLAESTGLLAVSDEILEVNGIEVAGKTLDQVTDMMVANSHNLIVTVKPANQRNNVVRGASGRLTGPPSAGPGPAEPDSDDDSSDLVIENRQPPSSNGLSQGPPCWDLHPGCRHPGTRSSLPSLDDQEQASSGWGSRIRGDGSGFSL |
| binds weakly |  | V5-Par6A(I133A,S134A) (protein, UniProt Q9NPB6 1-346) MARPQRTPARSPDSIVEVKSKFDAEFRRFALPRASVSGFQEFSRLLRAVHQIPGLDVLLGYTDAHGDLLPLTNDDSLHRALASGPPPLRLLVQKRAEADSSGLAFASNSLQRRKKGLLLRPVAPLRTRPPLLAALPQDFRQVSSVIDVDLLPETHRRVRLHKHGSDRPLGFYIRDGMSVRVAPQGLERVPGIFISRLVRGGLAESTGLLAVSDEILEVNGIEVAGKTLDQVTDMMVANSHNLIVTVKPANQRNNVVRGASGRLTGPPSAGPGPAEPDSDDDSSDLVIENRQPPSSNGLSQGPPCWDLHPGCRHPGTRSSLPSLDDQEQASSGWGSRIRGDGSGFSL |
| binds weakly |  | V5-Par6A(ΔCRIB) (protein, UniProt Q9NPB6) MARPQRTPARSPDSIVEVKSKFDAEFRRFALPRASVSGFQEFSRLLRAVHQIPGLDVLLGYTDAHGDLLPLTNDDSLHRALASGPPPLRLLVQKRAEADSSGLAFASNSLQRRKKGLLLRPVAPLRTRPPLLIPETHRRVRLHKHGSDRPLGFYIRDGMSVRVAPQGLERVPGIFISRLVRGGLAESTGLLAVSDEILEVNGIEVAGKTLDQVTDMMVANSHNLIVTVKPANQRNNVVRGASGRLTGPPSAGPGPAEPDSDDDSSDLVIENRQPPSSNGLSQGPPCWDLHPGCRHPGTRSSLPSLDDQEQASSGWGSRIRGDGSGFSL |
